Laboratory results: PubChem BioAssay AID1159584 (Peter MacCallum Cancer Centre, 2016)

Assay: 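Genes whose loss is lethal only together with E-cadherin loss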 (primary screen)
Cell system: human MCF10A breast epithelial cells, parental and CDH1-null
Reagents: siRNA against human genes
Detection: 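ATP luminescence (CellTiter-Glo) viability per line relative to mean mock wells over all plates, and the ratio of CDH1-null to parental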
Direction: CDH1-null / parental viability ratio: higher = CDH1-null cells survive relatively better than parental
This is an unselected part of about 18,000 deposited reagents. Not all columns of the deposit are shown. Not stated in the record: the amount of reagent, the time to read-out.

KATNIP (katanin interacting protein) [SID152152268] — CDH1-null / parental viability ratio = 1.07
VPS16 (VPS16 core subunit of CORVET and HOPS complexes) [SID134317245] — CDH1-null / parental viability ratio = 1.36
CLDND2 (claudin domain containing 2) [SID135622959] — CDH1-null / parental viability ratio = 1.33
CR2 (complement C3d receptor 2) [SID134312799] — CDH1-null / parental viability ratio = 1.13
ZNF266 (zinc finger protein 266) [SID134325014] — CDH1-null / parental viability ratio = 0.88
BOLL (boule RNA binding protein) [SID152149101] — CDH1-null / parental viability ratio = 0.96
YAP1 (Yes1 associated transcriptional regulator) [SID134316489] — CDH1-null / parental viability ratio = 0.91
RRP36 (ribosomal RNA processing 36) [SID152154840] — CDH1-null / parental viability ratio = 1.03
EIF4EBP3 [SID135623767] — CDH1-null / parental viability ratio = 0.81
SST (somatostatin) [SID152153125] — CDH1-null / parental viability ratio = 1.13
ANXA8 (annexin A8) [SID135625646] — CDH1-null / parental viability ratio = 1.48
KDELR3 (KDEL endoplasmic reticulum protein retention receptor 3) [SID152153594] — CDH1-null / parental viability ratio = 1.15

A run of entries from the list above:
BOLL (boule RNA binding protein) [SID152149101] — CDH1-null / parental viability ratio = 0.96
YAP1 (Yes1 associated transcriptional regulator) [SID134316489] — CDH1-null / parental viability ratio = 0.91
RRP36 (ribosomal RNA processing 36) [SID152154840] — CDH1-null / parental viability ratio = 1.03

The listing continues:
CABLES1 (Cdk5 and Abl enzyme substrate 1) [SID135621523] — CDH1-null / parental viability ratio = 1.24
UBE2D3 (ubiquitin conjugating enzyme E2 D3) [SID135621577] — CDH1-null / parental viability ratio = 0.93
KCNE2 [SID134313462] — CDH1-null / parental viability ratio = 1.15
TRUB1 (TruB pseudouridine synthase family member 1) [SID135623136] — CDH1-null / parental viability ratio = 1.03
DAAM2 (dishevelled associated activator of morphogenesis 2) [SID134318199] — CDH1-null / parental viability ratio = 0.94
ALDH1A3 (aldehyde dehydrogenase 1 family member A3) [SID152149509] — CDH1-null / parental viability ratio = 0.92
ZDHHC22 (zDHHC palmitoyltransferase 22) [SID152150743] — CDH1-null / parental viability ratio = 0.8
OPRPN (opiorphin prepropeptide) [SID152152841] — CDH1-null / parental viability ratio = 0.84
DBNDD1 (dysbindin domain containing 1) [SID152152709] — CDH1-null / parental viability ratio = 0.98
GADL1 (GAD like acidic amino acid decarboxylase 1) [SID134325719] — CDH1-null / parental viability ratio = 1.03
GPHB5 (glycoprotein hormone subunit beta 5) [SID152152583] — CDH1-null / parental viability ratio = 1.12
TMPRSS7 (transmembrane serine protease 7) [SID152149958] — CDH1-null / parental viability ratio = 0.98
HIF3A (hypoxia inducible factor 3 subunit alpha) [SID152154971] — CDH1-null / parental viability ratio = 0.92
GPR12 (G protein-coupled receptor 12) [SID135621020] — CDH1-null / parental viability ratio = 0.94
CCDC61 (coiled-coil domain containing 61) [SID152153623] — CDH1-null / parental viability ratio = 1.18
SLC52A1 [SID135621994] — CDH1-null / parental viability ratio = 0.86
ZNF708 (zinc finger protein 708) [SID135625185] — CDH1-null / parental viability ratio = 1.45
C9orf78 (chromosome 9 open reading frame 78) [SID135623944] — CDH1-null / parental viability ratio = 1.33
GTF2F2 (general transcription factor IIF subunit 2) [SID135622009] — CDH1-null / parental viability ratio = 1.03
ZNF211 (zinc finger protein 211) [SID134323888] — CDH1-null / parental viability ratio = 0.92
CPSF2 (cleavage and polyadenylation specific factor 2) [SID134317630] — CDH1-null / parental viability ratio = 1.17
NPRL2 (NPR2 like, GATOR1 complex subunit) [SID152150533] — CDH1-null / parental viability ratio = 1.18
CHORDC1 (cysteine and histidine rich domain containing 1) [SID134323746] — CDH1-null / parental viability ratio = 1.24
